Test results: article doi:10.1101/640185

Amino acid sequences for entries named in this document (tags omitted). A change or cut given only in a name is not applied to a line headed by its entry.
UniProt P21707: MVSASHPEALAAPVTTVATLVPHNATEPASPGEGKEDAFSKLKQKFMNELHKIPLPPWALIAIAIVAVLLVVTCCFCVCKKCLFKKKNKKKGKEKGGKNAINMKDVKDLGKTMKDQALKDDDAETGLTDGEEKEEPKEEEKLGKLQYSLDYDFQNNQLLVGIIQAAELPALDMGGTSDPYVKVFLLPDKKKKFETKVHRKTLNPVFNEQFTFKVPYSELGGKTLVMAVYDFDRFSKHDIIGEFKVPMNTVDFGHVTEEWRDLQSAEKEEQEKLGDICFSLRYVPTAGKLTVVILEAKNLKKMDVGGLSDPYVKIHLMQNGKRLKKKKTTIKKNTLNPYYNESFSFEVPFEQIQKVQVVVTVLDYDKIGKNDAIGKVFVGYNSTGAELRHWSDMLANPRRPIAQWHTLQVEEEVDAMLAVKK
UniProt Q9JIS5: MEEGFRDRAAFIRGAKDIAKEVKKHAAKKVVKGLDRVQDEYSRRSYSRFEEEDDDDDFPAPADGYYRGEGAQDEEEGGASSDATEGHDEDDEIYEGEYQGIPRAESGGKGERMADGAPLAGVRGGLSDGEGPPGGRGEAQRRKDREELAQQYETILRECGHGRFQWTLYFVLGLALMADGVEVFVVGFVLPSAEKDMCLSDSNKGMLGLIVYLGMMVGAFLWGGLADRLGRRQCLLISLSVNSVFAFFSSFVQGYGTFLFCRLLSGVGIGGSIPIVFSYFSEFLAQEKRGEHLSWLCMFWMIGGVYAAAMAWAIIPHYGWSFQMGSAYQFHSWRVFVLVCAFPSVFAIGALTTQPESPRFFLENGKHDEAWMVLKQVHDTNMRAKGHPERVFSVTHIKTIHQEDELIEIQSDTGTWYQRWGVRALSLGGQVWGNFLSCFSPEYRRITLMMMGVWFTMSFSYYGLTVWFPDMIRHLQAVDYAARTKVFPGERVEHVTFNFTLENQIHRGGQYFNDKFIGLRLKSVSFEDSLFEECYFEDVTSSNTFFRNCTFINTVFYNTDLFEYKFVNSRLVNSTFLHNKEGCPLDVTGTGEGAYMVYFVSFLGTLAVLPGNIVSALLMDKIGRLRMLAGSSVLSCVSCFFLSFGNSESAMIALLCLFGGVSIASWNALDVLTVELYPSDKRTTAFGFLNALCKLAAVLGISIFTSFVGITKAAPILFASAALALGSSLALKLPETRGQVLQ

Key:
Test in all cases: pull-down
[1] = target: glutathione-S-transferase–synaptotagmin 1 fusion protein (UniProt P21707)
[2] = target: glutathione-S-transferase–synaptotagmin 1 fusion protein (UniProt P21707); remark: listed apart in the source
[3] = target: glutathione-S-transferase–synaptotagmin 1 fusion protein (UniProt P21707); remark: listed apart in the source

Measured: binding

Synaptic Vesicle protein 2A (from UniProt Q9JIS5 1-742)
binds: [1] | [2] | [3]

Like-named read-outs stand apart in the source and are kept apart here. Results are given in words; binding and its absence hold for the method and conditions named. In cells and extracts the contact can be indirect. A result given as binding can be weak or reduced; the word gives no strength.
